In article PMC12297659, “In situ structure of the mouse sperm central apparatus reveals mechanistic insights into asthenozoospermia” (Cell Research, 2025) one finds binding data, which are given here for five molecules.

The chains behind the UniProt entries cited, without tags or fusion partners.
UniProt Q8K3V1: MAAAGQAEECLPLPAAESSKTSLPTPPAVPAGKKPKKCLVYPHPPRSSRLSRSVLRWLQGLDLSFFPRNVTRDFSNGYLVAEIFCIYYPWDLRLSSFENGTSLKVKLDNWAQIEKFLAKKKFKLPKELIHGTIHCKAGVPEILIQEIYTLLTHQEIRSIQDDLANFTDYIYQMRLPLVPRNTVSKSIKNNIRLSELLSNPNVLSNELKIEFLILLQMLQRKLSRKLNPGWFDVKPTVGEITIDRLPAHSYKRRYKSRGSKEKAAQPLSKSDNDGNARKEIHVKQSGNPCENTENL
UniProt A0A0G2JEB6: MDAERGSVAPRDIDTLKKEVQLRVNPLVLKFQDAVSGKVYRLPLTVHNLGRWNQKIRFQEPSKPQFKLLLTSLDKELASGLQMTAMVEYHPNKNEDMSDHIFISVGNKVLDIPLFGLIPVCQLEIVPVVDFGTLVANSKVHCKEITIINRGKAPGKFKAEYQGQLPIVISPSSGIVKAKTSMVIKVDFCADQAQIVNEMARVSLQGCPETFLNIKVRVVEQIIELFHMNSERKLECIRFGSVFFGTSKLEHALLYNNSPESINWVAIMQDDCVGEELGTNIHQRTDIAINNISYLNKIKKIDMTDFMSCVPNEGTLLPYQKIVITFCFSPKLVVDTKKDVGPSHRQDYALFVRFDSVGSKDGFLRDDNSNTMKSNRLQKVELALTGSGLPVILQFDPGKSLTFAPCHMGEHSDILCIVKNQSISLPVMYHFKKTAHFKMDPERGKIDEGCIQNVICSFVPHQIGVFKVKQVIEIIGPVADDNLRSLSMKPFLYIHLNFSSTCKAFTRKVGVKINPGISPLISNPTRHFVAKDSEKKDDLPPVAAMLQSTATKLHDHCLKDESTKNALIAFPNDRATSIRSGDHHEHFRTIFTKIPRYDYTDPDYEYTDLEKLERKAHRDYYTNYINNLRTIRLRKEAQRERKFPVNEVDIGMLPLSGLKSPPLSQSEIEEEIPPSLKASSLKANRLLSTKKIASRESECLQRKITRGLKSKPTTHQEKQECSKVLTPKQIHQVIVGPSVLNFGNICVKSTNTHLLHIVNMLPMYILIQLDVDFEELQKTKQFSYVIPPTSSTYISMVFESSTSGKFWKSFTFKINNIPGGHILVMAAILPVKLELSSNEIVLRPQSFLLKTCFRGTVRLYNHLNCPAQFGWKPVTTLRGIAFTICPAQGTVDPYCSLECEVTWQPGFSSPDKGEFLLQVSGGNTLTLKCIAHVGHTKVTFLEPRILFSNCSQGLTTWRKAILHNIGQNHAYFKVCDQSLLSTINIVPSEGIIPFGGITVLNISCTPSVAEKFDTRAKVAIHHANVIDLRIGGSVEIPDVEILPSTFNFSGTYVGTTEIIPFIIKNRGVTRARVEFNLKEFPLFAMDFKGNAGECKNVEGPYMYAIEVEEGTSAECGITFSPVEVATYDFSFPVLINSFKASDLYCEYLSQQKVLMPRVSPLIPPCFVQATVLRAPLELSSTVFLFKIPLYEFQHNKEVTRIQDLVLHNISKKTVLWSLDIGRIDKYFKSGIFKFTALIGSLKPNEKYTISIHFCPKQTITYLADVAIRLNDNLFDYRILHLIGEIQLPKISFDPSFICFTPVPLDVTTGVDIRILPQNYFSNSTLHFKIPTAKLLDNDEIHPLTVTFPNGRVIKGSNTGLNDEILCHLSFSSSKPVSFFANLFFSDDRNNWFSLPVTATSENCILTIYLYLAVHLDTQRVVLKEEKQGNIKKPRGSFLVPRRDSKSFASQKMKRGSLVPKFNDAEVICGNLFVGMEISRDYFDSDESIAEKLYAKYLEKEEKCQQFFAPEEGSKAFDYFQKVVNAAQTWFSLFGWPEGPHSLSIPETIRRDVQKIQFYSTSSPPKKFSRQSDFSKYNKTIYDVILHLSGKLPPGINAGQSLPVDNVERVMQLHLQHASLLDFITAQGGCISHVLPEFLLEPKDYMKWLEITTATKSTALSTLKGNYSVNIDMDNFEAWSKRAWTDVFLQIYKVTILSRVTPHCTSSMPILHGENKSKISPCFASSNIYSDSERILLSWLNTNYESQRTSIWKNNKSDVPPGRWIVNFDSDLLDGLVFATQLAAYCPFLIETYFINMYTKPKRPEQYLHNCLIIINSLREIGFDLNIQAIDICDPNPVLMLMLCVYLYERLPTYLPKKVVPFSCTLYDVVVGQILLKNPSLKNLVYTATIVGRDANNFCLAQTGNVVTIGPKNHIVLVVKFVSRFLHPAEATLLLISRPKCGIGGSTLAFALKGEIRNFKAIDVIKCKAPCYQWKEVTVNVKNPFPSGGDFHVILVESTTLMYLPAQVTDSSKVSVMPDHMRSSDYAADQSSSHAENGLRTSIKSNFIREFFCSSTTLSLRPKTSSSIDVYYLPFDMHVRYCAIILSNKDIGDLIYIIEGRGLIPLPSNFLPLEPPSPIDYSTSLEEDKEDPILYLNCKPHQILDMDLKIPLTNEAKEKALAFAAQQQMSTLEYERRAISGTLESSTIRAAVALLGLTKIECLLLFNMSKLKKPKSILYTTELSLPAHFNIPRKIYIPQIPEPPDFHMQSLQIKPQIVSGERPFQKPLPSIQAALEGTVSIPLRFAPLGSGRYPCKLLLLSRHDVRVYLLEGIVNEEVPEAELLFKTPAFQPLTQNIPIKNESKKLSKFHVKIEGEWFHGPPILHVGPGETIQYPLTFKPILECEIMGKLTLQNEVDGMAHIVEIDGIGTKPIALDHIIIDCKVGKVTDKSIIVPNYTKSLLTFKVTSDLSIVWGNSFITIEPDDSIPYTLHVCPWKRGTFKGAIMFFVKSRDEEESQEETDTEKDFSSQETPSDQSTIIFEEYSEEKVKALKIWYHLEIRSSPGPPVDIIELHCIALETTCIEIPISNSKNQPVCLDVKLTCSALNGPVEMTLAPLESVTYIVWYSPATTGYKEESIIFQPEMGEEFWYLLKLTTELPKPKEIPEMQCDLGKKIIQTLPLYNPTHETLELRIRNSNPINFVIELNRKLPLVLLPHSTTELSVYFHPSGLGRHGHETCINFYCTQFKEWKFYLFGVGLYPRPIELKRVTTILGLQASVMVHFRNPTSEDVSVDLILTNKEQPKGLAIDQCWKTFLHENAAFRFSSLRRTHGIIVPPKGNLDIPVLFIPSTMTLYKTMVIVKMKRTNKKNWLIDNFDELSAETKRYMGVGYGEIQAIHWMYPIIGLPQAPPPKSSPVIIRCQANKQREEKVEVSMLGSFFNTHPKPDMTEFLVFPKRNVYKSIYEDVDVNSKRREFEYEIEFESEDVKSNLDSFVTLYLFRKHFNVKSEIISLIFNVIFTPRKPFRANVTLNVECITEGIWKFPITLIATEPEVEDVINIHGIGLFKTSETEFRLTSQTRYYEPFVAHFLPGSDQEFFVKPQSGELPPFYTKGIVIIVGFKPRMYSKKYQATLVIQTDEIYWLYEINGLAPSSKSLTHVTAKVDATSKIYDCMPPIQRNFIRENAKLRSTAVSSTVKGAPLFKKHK
UniProt Q8C9J3: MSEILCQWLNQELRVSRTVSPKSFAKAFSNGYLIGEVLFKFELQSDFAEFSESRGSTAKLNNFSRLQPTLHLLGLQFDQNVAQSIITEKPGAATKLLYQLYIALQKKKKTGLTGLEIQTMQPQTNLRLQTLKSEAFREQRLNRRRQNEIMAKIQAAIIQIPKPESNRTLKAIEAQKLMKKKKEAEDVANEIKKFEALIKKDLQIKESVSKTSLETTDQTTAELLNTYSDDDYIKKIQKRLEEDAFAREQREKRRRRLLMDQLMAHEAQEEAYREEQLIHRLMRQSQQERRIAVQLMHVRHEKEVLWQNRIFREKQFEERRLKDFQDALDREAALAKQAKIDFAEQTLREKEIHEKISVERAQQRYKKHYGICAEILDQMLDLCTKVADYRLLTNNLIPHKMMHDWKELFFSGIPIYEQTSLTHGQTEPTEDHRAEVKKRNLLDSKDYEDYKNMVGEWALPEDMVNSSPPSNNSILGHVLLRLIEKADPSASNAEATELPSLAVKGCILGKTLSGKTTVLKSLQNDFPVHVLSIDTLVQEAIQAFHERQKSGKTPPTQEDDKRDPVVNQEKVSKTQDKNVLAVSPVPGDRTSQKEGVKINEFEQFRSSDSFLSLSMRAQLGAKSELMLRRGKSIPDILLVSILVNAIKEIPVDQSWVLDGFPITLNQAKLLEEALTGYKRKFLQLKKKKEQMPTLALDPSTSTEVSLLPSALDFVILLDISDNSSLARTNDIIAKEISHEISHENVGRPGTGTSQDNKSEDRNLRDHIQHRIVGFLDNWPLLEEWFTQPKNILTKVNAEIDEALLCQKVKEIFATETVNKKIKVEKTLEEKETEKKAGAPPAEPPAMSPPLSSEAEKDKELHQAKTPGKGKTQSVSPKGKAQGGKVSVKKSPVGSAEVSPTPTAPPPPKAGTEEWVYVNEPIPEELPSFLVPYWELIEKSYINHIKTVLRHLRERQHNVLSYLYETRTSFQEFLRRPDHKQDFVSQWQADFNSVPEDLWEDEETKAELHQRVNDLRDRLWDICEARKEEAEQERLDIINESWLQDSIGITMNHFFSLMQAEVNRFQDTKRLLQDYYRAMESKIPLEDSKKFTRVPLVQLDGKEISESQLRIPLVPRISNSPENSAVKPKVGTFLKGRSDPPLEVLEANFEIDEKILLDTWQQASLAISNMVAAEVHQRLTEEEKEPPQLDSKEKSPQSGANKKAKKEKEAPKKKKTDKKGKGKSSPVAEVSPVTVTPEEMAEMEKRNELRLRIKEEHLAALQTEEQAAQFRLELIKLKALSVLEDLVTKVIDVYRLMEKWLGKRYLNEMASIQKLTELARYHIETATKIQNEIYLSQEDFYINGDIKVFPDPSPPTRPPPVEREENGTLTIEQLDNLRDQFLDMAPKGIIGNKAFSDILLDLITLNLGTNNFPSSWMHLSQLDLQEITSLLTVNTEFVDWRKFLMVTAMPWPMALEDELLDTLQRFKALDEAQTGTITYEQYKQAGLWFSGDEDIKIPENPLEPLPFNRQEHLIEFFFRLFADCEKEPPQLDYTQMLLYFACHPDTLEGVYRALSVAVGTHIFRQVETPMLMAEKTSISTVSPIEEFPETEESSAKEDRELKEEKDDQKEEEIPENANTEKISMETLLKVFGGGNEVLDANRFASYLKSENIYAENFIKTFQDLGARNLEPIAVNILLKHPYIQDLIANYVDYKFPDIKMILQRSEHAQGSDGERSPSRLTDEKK

Holding throughout (assay): cryo-EM structure; in situ cryo-electron tomography with subtomogram averaging of about 200 nm cryo-FIB lamellae of wild-type mouse sperm; local maps of 5.5 Å to 18 Å; AlphaFold2 models fitted into the density
Experiment [1] deals with T1, SPAG16 (mouse (endogenous in sperm)) (UniProt Q8K450).
T1 sequence: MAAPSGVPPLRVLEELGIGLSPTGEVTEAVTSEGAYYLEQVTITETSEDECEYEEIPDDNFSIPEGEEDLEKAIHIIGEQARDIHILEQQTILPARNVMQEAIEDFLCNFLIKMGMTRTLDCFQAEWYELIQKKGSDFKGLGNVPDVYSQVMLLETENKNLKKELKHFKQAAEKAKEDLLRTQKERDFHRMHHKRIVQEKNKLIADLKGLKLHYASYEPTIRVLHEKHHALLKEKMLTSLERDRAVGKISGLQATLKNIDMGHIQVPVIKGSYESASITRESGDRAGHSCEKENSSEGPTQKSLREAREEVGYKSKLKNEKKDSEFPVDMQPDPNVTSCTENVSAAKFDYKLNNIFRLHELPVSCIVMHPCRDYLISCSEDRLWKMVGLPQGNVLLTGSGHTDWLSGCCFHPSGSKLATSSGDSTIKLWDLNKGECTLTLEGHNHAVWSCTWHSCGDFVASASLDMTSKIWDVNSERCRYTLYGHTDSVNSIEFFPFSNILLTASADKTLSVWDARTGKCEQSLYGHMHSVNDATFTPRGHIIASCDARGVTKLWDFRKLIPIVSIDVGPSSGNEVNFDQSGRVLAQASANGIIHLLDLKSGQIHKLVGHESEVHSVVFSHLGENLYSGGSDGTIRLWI

For experiment [2], the target named is HYDIN (mouse (endogenous in sperm)) (UniProt Q80W93).
In experiment [3] the target is T2, SPAG6 (mouse (endogenous in sperm)) (UniProt Q9JLI7).
T2 sequence: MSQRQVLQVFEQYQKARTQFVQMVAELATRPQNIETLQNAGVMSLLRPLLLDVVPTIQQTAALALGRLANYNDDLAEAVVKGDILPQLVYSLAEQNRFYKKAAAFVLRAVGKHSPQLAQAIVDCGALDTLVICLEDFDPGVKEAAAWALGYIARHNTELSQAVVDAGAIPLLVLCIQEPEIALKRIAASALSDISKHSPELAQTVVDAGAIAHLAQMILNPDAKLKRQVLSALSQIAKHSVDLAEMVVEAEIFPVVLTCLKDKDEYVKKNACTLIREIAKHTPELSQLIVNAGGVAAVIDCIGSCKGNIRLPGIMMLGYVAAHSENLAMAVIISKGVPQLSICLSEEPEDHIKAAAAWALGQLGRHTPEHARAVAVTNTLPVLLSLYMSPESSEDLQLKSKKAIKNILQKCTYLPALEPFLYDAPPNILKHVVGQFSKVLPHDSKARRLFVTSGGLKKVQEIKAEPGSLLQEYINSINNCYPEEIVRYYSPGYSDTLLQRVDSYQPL

Experiment [4] deals with T3, LRGUK (mouse (endogenous in sperm)) (UniProt Q9D5S7).
T3 sequence: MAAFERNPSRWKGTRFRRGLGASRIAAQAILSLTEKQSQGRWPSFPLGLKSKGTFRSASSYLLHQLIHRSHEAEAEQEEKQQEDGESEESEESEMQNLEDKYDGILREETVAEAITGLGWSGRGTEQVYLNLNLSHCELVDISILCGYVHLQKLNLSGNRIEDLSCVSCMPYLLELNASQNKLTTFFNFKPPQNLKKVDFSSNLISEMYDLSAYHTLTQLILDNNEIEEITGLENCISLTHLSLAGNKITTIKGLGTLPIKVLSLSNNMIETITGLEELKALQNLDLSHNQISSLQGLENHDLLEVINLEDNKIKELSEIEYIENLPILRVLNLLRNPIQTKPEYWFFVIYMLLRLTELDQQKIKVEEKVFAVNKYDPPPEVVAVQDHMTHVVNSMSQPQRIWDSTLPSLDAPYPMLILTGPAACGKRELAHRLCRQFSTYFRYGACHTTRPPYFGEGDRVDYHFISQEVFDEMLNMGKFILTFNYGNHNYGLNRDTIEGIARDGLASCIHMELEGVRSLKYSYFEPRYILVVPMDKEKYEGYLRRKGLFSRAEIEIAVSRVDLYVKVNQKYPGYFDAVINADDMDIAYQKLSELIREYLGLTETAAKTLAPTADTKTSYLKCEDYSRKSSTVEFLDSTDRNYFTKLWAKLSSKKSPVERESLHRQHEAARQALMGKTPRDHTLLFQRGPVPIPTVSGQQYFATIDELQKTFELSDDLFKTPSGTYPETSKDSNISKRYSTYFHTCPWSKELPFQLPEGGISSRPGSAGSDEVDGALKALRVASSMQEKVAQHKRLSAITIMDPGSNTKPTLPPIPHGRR

In experiment [5] the target is T4, CFAP69 (mouse (endogenous in sperm)) (UniProt Q8BH53).
T4 sequence: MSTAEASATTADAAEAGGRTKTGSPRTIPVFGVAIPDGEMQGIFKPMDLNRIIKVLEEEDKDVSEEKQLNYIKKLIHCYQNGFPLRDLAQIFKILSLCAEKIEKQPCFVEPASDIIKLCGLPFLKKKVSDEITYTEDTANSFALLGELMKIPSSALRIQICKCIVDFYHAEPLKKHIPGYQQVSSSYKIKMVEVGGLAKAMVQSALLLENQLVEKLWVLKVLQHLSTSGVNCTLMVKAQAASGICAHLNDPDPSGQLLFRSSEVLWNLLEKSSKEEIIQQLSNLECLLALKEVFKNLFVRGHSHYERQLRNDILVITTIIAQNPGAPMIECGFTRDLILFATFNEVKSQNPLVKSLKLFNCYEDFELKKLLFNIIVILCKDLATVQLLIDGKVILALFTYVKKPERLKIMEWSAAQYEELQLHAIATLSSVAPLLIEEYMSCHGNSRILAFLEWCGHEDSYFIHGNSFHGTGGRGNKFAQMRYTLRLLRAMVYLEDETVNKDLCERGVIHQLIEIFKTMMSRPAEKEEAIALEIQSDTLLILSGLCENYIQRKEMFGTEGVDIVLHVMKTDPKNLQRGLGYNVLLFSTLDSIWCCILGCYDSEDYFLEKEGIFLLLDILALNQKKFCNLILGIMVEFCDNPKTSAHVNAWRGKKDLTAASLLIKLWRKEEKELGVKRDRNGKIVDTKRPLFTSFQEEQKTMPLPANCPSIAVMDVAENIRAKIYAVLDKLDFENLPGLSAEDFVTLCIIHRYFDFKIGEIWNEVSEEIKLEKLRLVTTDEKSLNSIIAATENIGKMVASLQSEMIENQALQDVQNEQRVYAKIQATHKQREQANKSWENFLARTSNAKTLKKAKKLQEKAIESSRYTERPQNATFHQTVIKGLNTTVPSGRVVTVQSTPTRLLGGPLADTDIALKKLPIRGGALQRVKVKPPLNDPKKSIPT

The target in experiment [6] is T2, SPAG6 (mouse (endogenous in sperm)). This is another data set of the same source.
Experiment [7] addresses SPATA4 (mouse (endogenous in sperm)) (UniProt Q8K3V1).
Experiment [8] has as its target CFAP65 (mouse (endogenous in sperm)) (UniProt Q3V0B4).

Read-outs that look alike come from different tables or passages of the source. These are yes or no findings as the source states them, for the method shown. Some binding calls cover weakened binding; strength is not graded here.

On to CFAP47 (from UniProt A0A0G2JEB6 1-3184), for which the binding entry in experiment [1] is reported as “binds”.

For SPEF2 (from UniProt Q8C9J3 1-1724), the binding result in experiment [2], in experiment [3], in experiment [4] and in experiment [5] was “binds” each time.

B1: SPATA17 (protein, UniProt Q9D552 1-379)
chain: METNSNNFGELQELKDMATLAKLLARAPFLESQYYFRNRAVDSFRKFENDAAVMIQSWFRGCQVRAYMRHLNRVVTIIQKWWRSYLGRKFYQLVVEAAYYTMKMNLYNEMAVRIQRRWRGFRIRKYCFNYYYLKEYLRAVSETNDAIREALEEFAEMKEREERKVLLEREEKQKDYQARKMHYLLSTKQISGIYNSPFREHPDPWELRLQKAKPLGHQKYTAEKGKTSQSPSNWLACTSVHSFPQSESLPPISRKRCQGPFRDINEVLEQRYKPLEPTLRVAEPINHLRLAREAFKQEERMRNVQDKMFLPFSSYHKKEKYIPMIHSSSAYNSDSYGQKHFRSQDSKKWISDKDFQTVLPSFQLFSKYGKLYSKAGEIV
Take B1: the binding result in experiment [6] is on record as “binds”.

B2: SPAG16 (natural protein, mouse (endogenous in sperm), UniProt Q8K450 1-639, looked up)
chain: T1 sequence
notes: SPAG16, mouse, with a coiled-coil domain and a C-terminal β-propeller domain; Adjacent copies dimerise through the coiled-coil domain; also called PF20 homolog; source: endogenous, in intact mouse sperm (cryo-FIB lamellae)
For the molecule B2, in experiment [7], the binding result is “binds”.

B3: KIF9 (protein, UniProt Q9WV04 1-790)
chain: MGTRKKVQAFVRVRPTDDFAHEMIKYGEDNKSIDIHLKKDTRRGVVNNQQTDWSFKLDGVLHNASQDLVYETVAKDAVSQALDGYNGTIMCYGQTGAGKTYTMTGATENYKHRGILPRALQQVFRMIEERPTHAITVRVSYLEIYNENLFDLLSTLPYVGPSVTPMTIVENPQGIFIKGLSVHLTSQEEDAFSLLFEGETNRIIASHTMNKNSSRSHCIFTIYMEAHSRTLSDEKYITSKINLVDLAGSERLSKTGSEGRVLKEATYINKSLSFLEQAIIALGDQNRDHVPFRQSKLTHALKDSLGGNCNMVLVTNIYGEAAQLDETLSSLRFASRMKLVTTEPAINEKYDAERMVKNLEKELALLKQELAIHDSLSNRTLVNYDPMDEIQIAEINSQVRRYLEGTLDEIDIINLRQIQEVFNQFRVVLSQQEQEVESALRRKYTLIDKNDFAAISAVQKVGLMDIEGNLVGEPDGQSFGLGVAPFSVKPGKKPKTKKTPKDQFSSSARKEGASSPVSGKDFDVASISKTQLIPSSKDGDLKDMLARERETSSIEPLISDSPKEELRAPRPSTPPSRTVAFEEFKNERGSEINRIFKENKSILNERKKRASETTQRINAIKQEIDETKDALNFQKSLREKQGEYENKGLMIIDEEEFLLILKLKDLKKQYRNEYQELRDLRAEIQYCQRLVDQCRHRLLMEFDIWYNESFMIPEDVQVALKLGSSIRPGMVPISRIVCLGEDDQDRFSHLQQTVLPEGLDSITFYNAKVKTDQKHNYMKTMVGLQQSHRK
As to B3, the binding entry in experiment [8] was “binds”.
